Test results reported in US8394797B2, “Substituted pyrazole sigma receptor antagonists” (Laboratorios Del Dr. Esteve, S.A., priority 2004, dated 2013).
Where a name gives a salt, the structure may show the parent alone. Some of these results come from one statement about several compounds together.

Tested on: capsaicin-induced mechanical allodynia in mice
Test: Effect on capsaicin in development of mechanical allodynia (von Frey filaments)
Assay type: in vivo
Settings: dosage of 32 mg/kg
Experimental: Effect on Capsaicin in Development of Mechanical Allodynia This model uses the von-Frey Filaments and is a model to test the effects or symptoms of neuropathic pain, allodynia etc. […]. After habituation mice were according to FIG. 1 first treated with the test-compound (or solvent in controls). Then […] (1% DMSO) is injected into their paw resulting in developing pain in the effected paw. The effected paw is then treated with a mechanical stimulus and the latency time before the paw is withdrawn is measured.

Row | Structure (SMILES) | pain relieve
1 | C(/CN1CCOCC1)=C1/CCCc2c1cnn2-c1ccccc1.O=C(O)C(=O)O [Example 77, (E)-4,5,6,7-tetrahydro-4-(2-(morpholin-4-yl)ethylidene)-1-phenyl-1H-indazole oxalate] | at least 50%
2 | CN(CCC1CCCc2c1cnn2C)Cc1ccccc1.O=C(O)C(=O)O (stereo not shown) [Example 62, N-benzyl-2-(4,5,6,7-tetrahydro-1-methyl-1H-indazol-4-yl)-N-methylethanamine oxalate] | at least 50%
3 | Cn1ncc2c1CCCC2CCN1CCC(c2ccccc2)CC1.O=C(O)C(=O)O (stereo not shown) [Example 58, 4,5,6,7-tetrahydro-1-methyl-4-(2-(4-phenylpiperidin-1-yl)ethyl)-1H-indazole oxalate] | at least 50%
4 | c1ccc(-n2ncc3c2CCCC3CCN2CCOCC2)cc1 (stereo not shown) [Example 2, 4,5,6,7-tetrahydro-4-(2-(morpholin-4-yl)ethyl)-1-phenyl-1H-indazole oxalate] | at least 50%
